Some results were stated once for a whole list of compounds, not compound by compound. Some ranges recur; such a range may be that of the whole group of compounds.
These molecules were tested against T1, GST-BIR3 fusion protein (Homo sapiens, UniProt P98170) (assay: TR-FRET competition assay of biotinylated Smac binding to GST-BIR3). Conditions: competition with Biotin-Smac for GST-BIR3, Eu-Streptavidin donor, anti-GST-APC acceptor.
T1 construct: fused on or other part: GST tag, detected by anti-GST-APC

Chains of the proteins cited; added tags and fusions are not shown. Residues count along the entry.
UniProt P98170, 241-356: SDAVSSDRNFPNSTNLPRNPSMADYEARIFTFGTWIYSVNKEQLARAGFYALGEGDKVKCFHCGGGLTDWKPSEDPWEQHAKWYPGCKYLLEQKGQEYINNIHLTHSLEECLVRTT

IC50 (concentration of compound inhibiting 50% of Smac binding), 1 to 10000 nM:
CNC(=O)c1cccc(-c2ccc(NC(=O)C(C)NC)c(=O)n2Cc2cc(Br)cc(C(=O)c3ccc(F)cc3)c2)c1 (stereo in doubt) [Example 31, 3-[1-[3-Bromo-5-(4-fluoro-benzoyl)-benzyl]-5-((S)-2-methylamino-propionylamino)-6-oxo-1,6-dihydro-pyridin-2-yl]-N-methyl-benzamide]
CNC(C)C(=O)Nc1ccc(-c2cccc(C(F)(F)F)c2)n(Cc2cncc(C(=O)c3ccc(F)cc3)c2)c1=O (stereo in doubt) [Example 42, (S)-N-[1-[5-(4-Fluoro-benzoyl)-pyridin-3-ylmethyl]-2-oxo-6-(3-trifluoromethyl-phenyl)-1,2-dihydro-pyridin-3-yl]-2-methylamino-propionamide]
CNC(C)C(=O)Nc1ccc(-c2cccc(C(N)=O)c2)n(Cc2nc(C(=O)c3cc4cc(F)ccc4[nH]3)cs2)c1=O (stereo in doubt) [Example 70, 3-[1-[4-(5-Fluoro-1H-indole-2-carbonyl)-thiazol-2-ylmethyl]-5-((S)-2-methylamino-propionylamino)-6-oxo-1,6-dihydro-pyridin-2-yl]-benzamide]
CNC(C)C(=O)Nc1ccc(-c2cccc(C)c2)n(Cc2cncc(C(=O)c3ccc(F)cc3)c2)c1=O (stereo in doubt) [Example 51, (S)-N-{I -[5-(4-Fluoro-benzoyl)-pyridin-3-ylmethyl]-2-oxo-6-m-tolyl-1,2-dihydro-pyridin-3-yl}-2-methylamino-propionamide]
CNC(C)C(=O)Nc1ccc(-c2cccc(C(=O)NCC(C)C)c2)n(Cc2cc(C(=O)c3ccc(F)cc3)cc(N3CCOCC3)c2)c1=O (stereo in doubt) [Example 44, 3-[1-[3-(4-Fluoro-benzoyl)-5-morpholin-4-yl-benzyl]-5-((S)-2-methylamino-propionylamino)-6-oxo-1,6-dihydro-pyridin-2-yl]-N-isobutyl-benzamide]
CNC(C)C(=O)Nc1ccc(-c2cccc(O)c2)n(Cc2cncc(C(=O)c3ccc(F)cc3)c2)c1=O (stereo in doubt) [Example 50, (S)-N-[1-[5-(4-Fluoro-benzoyl)-pyridin-3-ylmethyl]-6-(3-hydroxy-phenyl)-2-oxo-1,2-dihydro-pyridin-3-yl]-2-methylamino-propionamide]
CNC(C)C(=O)Nc1ccc(-c2cccc(Cl)c2)n(Cc2cncc(C(=O)c3ccc(F)cc3)c2)c1=O (stereo in doubt) [Example 27, (S)-N-{6-(3-Chloro-phenyl)-1-[5-(4-fluoro-benzoyl)-pyridin-3-ylmethyl]-2-oxo-1,2-dihydro-pyridin-3-yl}-2-methylamino-propionamide]
CNC(C)C(=O)Nc1ccc(-c2ccnc(F)c2)n(Cc2cncc(C(=O)c3ccc(F)cc3)c2)c1=O (stereo in doubt) [Example 37, (S)-N-{2′-Fluoro-1-[5-(4-fluoro-benzoyl)-pyridin-3-ylmethyl]-6-oxo-1,6-dihydro-[2,4′]bipyridinyl-5-yl}-2-methylamino-propionamide]
CNC(C)C(=O)Nc1ccc(-c2ccc(F)nc2)n(Cc2cncc(C(=O)c3ccc(F)cc3)c2)c1=O (stereo in doubt) [Example 53, (S)-N-{6′-Fluoro-1-[5-(4-fluoro-benzoyl)-pyridin-3-ylmethyl]-6-oxo-1,6-dihydro-[2,3′]bipyridinyl-5-yl}-2-methylamino-propionamide]
CNC(=O)c1cccc(-c2ccc(NC(=O)C(C)NC)c(=O)n2Cc2cncc(-n3ccc4cc(F)ccc43)c2)c1 (stereo in doubt) [Example 24, 3-[1-[5-(5-Fluoro-indol-1-yl)-pyridin-3-ylmethyl]-5-((S)-2-methylamino-propionylamino)-6-oxo-1,6-dihydro-pyridin-2-yl]-N-methyl-benzamide]
CNC(=O)c1cccc(-c2ccc(NC(=O)C(C)NC)c(=O)n2Cc2cc(C(=O)c3ccc(F)cc3)cc(N3CCOCC3)c2)c1 (stereo in doubt) [Example 43, 3-[1-(3-(4-Fluoro-benzoyl)-5-morpholin-4-yl-benzyl]-5-((S)-2-methylamino-propionylamino)-6-oxo-1,6-dihydro-pyridin-2-yl]-N-methyl-benzamide]
CNC(C)C(=O)Nc1ccc(-c2cccc(N)c2)n(Cc2cncc(C(=O)c3ccc(F)cc3)c2)c1=O (stereo in doubt) [Example 34, (S)-N-{6-(3-Amino-phenyl)-1-[5-(4-fluoro-benzoyl)-pyridin-3-ylmethyl]-2-oxo-1,2-dihydro-pyridin-3-yl}-2-methylamino-propionamide]
CNC(C)C(=O)Nc1ccc(-c2cccc(C#N)c2)n(Cc2nc(C(=O)c3cc4cc(F)ccc4[nH]3)cs2)c1=O (stereo in doubt) [Example 64, (S)-N-{6-(3-Cyano-phenyl)-1-[4-(5-fluoro-1H-indole-2-carbonyl)-thiazol-2-ylmethyl]-2-oxo-1,2-dihydro-pyridin-3-yl)-2-methylamino-propionamide]
CCOC(=O)c1cccc(-c2ccc(NC(=O)C(C)NC)c(=O)n2Cc2cncc(C(=O)c3ccc(F)cc3)c2)c1 (stereo in doubt) [Example 49, 3-[1-[5-(4-Fluoro-benzoyl)-pyridin-3-ylmethyl]-5-((S)-2-methylamino-propionylamino)-6-oxo-1,6-dihydro-pyridin-2-yl]-benzoic acid ethyl ester]
CNC(C)C(=O)Nc1ccc(-c2cccc(C(=O)N(C)C)c2)n(Cc2cncc(C(=O)c3ccc(F)cc3)c2)c1=O (stereo in doubt) [Example 32, 3-[1-[5-(4-Fluoro-benzoyl)-pyridin-3-ylmethyl]-5-((S)-2-methylamino-propionylamino)-6-oxo-1,6-dihydro-pyridin-2-yl]-N,N-dimethyl-benzamide]
CNC(C)C(=O)Nc1ccc(-c2ccc(OC)cc2)n(Cc2cncc(C(=O)c3ccc(F)cc3)c2)c1=O (stereo in doubt) [Example 66, (S)-N-(1-{5-(4-Fluoro-benzoyl)-pyridin-3-ylmethyl]-6-(4-methoxy-phenyl)-2-oxo-1,2-dihydro-pyridin-3-yl]-2-methylamino-propionamide]
CNC(C)C(=O)Nc1ccc(C2CCCCC2)n(Cc2cncc(C(=O)c3ccc(F)cc3)c2)c1=O (stereo in doubt) [Example 28, (S)-N-{6-Cyclohexyl-1-[5-(4-fluoro-benzoyl)-pyridin-3-ylmethyl]-2-oxo-1,2-dihydro-pyridin-3-yl}-2-methylamino-propionamide]
CCc1cccc(-c2ccc(NC(=O)C(C)NC)c(=O)n2Cc2cncc(C(=O)c3ccc(F)cc3)c2)c1 (stereo in doubt) [Example 65, (S)-N-{6-(3-Ethyl-phenyl)-1-[5-(4-fluoro-benzoyl)-pyridin-3-ylmethyl]-2-oxo-1,2-dihydro-pyridin-3-yl}-2-methylamino-propionamide]
CNC(C)C(=O)Nc1ccc(C#CC2CC2)n(Cc2cncc(C(=O)c3ccc(F)cc3)c2)c1=O (stereo in doubt) [Example 26, (S)-N-{6-Cyclopropylethynyl-1-[5-(4-fluoro-benzoyl)-pyridin-3-ylmethyl]-2-oxo-1,2-dihydro-pyridin-3-yl}-2-methylamino-propionamide]
CNC(C)C(=O)Nc1ccc(-c2cccc(C#N)c2)n(Cc2cncc(C(=O)c3ccc(F)cc3)c2)c1=O (stereo in doubt) [Example 35, (S)-N-{6-(3-Cyano-phenyl)-1-[5-(4-fluoro-benzoyl)-pyridin-3-ylmethyl]-2-oxo-1,2-dihydro-pyridin-3-yl}-2-methylamino-propionamide]
CNC(C)C(=O)Nc1ccc(-c2ccc(C#N)cc2)n(Cc2cncc(C(=O)c3ccc(F)cc3)c2)c1=O (stereo in doubt) [Example 39, (S)-N-{6-(4-Cyano-phenyl)-1-[5-(4-fluoro-benzoyl)-pyridin-3-ylmethyl]-2-oxo-1,2-dihydro-pyridin-3-yl}-2-methylamino-propionamide]
CNC(C)C(=O)Nc1ccc(-c2ccc3nonc3c2)n(Cc2cncc(C(=O)c3ccc(F)cc3)c2)c1=O (stereo in doubt) [Example 60, (S)-N-{6-Benzo[1,2,5]oxadiazol-5-yl-1-[5-(4-fluoro-benzoyl)-pyridin-3-ylmethyl]-2-oxo-1,2-dihydro-pyridin-3-yl}-2-methylamino-propionamide]
CNC(C)C(=O)Nc1ccc(C#CC(C)O)n(Cc2cncc(C(=O)c3ccc(F)cc3)c2)c1=O (stereo in doubt) [Example 55, (S)-N-[1-[5-(4-Fluoro-benzoyl)-pyridin-3-ylmethyl]-6-(3-hydroxy-but-1-ynyl)-2-oxo-1,2-dihydro-pyridin-3-yl]-2-methylamino-propionamide]
CNC(C)C(=O)Nc1ccc(-c2cccnc2)n(Cc2cncc(C(=O)c3ccc(F)cc3)c2)c1=O (stereo in doubt) [Example 61, (S)-N-{1-[5-(4-Fluoro-benzoyl)-pyridin-3-ylmethyl]-6-oxo-1,6-dihydro-[2,3′]bipyridinyl-5-yl}-2-methylamino-propionamide]
CNC(C)C(=O)Nc1ccc(-c2ccccc2C)n(Cc2cncc(C(=O)c3ccc(F)cc3)c2)c1=O (stereo in doubt) [Example 47, (S)-N-{1-[5-(4-Fluoro-benzoyl)-pyridin-3-ylmethyl]-2-oxo-6-o-tolyl-1,2-dihydro-pyridin-3-yl}-2-methylamino-propionamide]
